Results as given in the supplement of paper PMC8166895.
Counter-ions that a name gives are not always drawn. The list shows a part of the results. Most values lie at the level of the controls, where differences are scatter.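 A single-replicate pilot screen of approved drugs and clinical or known-target compounds measured melting temperature via differential scanning fluorimetry. Top stabilizing hits raised the melting point by 2 °C or more; negative shifts indicate destabilization.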

tested on: SARS-CoV-2 main protease (Mpro, nsp5); test: thermal shift ΔTm of Mpro relative to plate average Tm; higher = stronger thermal stabilization of Mpro (binding); conditions: 10 µM; protein concentration 1 µM

In order of falling “thermal shift ΔTm of Mpro” value:
1. Oc1ccc(/C=C/c2cc(O)cc(O)c2)cc1 [Resveratrol]  0.576 °C
2. O=C(Nc1cccc(C(F)(F)F)c1)Nc1cc(S(=O)(=O)NC2CC2)ccc1-c1ccsc1  0.557 °C
3. COCCNCc1ccc(-c2cc3nccc(Oc4ccc(NC(=O)C5(C(=O)Nc6ccc(F)cc6)CC5)cc4F)c3s2)nc1 [Sitravatinib]  0.436 °C
4. Cc1cc(/C=C/C#N)cc(C)c1Nc1ccnc(Nc2ccc(C#N)cc2)n1 [Rilpivirine]  0.409 °C
5. CCOc1cc2ncc(C#N)c(Nc3ccc(F)c(Cl)c3)c2cc1NC(=O)/C=C/CN(C)C [Pelitinib (EKB-569)]  0.314 °C
6. Cc1noc2c1-c1ccccc1C(c1ccc(Cl)cc1)=N[C@H]2CC(N)=O  0.299 °C
7. CC(C)(C#N)c1cc(Cn2cncn2)cc(C(C)(C)C#N)c1 [Anastrozole]  0.284 °C
8. CO/N=C(\C(=O)N[C@@H]1C(=O)N2C(C(=O)O)=C(CSc3nnnn3C)CS[C@H]12)c1csc(N)n1 [Cefmenoxime hydrochloride]  0.257 °C
9. COc1ccc(/C=C/C(=O)Nc2ccccc2C(=O)O)cc1OC [Tranilast]  0.246 °C
10. O=c1[nH]c2cc(Cl)ccc2s1 [Chlorobenzothiazolinone]  0.131 °C
11. O=C(Nc1cc(Oc2cc(F)c(NC(=O)C3(C(=O)Nc4ccc(F)cc4)CC3)cc2F)ccn1)C1CC1 [Altiratinib]  0.0907 °C
12. CCN(CC)CCNC(=O)c1c(C)[nH]c(/C=C2\C(=O)Nc3ccc(F)cc32)c1C [Sunitinib Malate]  0.0904 °C
13. Cc1cc(=O)[nH]c(=S)[nH]1 [Methylthiouracil]  0.066 °C
14. COc1ccc(/C=C/C(=O)Nc2ccccc2C(=O)O)cc1OC [Trans-Tranilast]  0.0559 °C
15. CC[C@]1(O)C[C@H]2CN(CCc3c([nH]c4ccccc34)[C@@](C(=O)OC)(c3cc4c(cc3OC)N(C=O)[C@H]3[C@@](O)(C(=O)OC)[C@H](OC(C)=O)[C@]5(CC)C=CCN6CC[C@]43[C@@H]65)C2)C1 [Vincristine]  0.0537 °C
16. CN1[C@@H]2CC[C@H]1C[C@@H](OC(=O)c1c[nH]c3ccccc13)C2 [Tropisetron]  0.0525 °C
17. COc1ccccc1OCC(O)CO (centres undefined) [Guaifenesin]  0.043 °C
18. O=C1c2c(O)cccc2C([C@@H]2O[C@H](CO)[C@@H](O)[C@H](O)[C@H]2O)c2cc(CO)cc(O)c21 (some centres undefined) [Aloin]  0.0194 °C
19. COc1cc(N)c(Cl)cc1C(=O)NC1CCN(Cc2ccc(F)cc2)CC1 [Fluoroclebopride]  0.0139 °C
20. CC(C(=O)O)c1ccc2c(c1)[nH]c1ccc(Cl)cc12 (centres undefined) [Carprofen]  0.0132 °C
21. CCN(CC)Cc1ccc(C(=O)N(CCc2ccccc2OC)[C@@H]2CCNC2)cc1  0.00759 °C
22. CCOC(=O)C1=C(COCCN)NC(C)=C(C(=O)OC)C1c1ccccc1Cl (centres undefined) [Amlodipine besylate (Norvasc)]  0.00728 °C
23. CCOC(=O)C1=C(COCCN)NC(C)=C(C(=O)OC)C1c1ccccc1Cl (centres undefined) [Amlodipine]  0.00626 °C
24. O=C(CCCCCCCC(=O)NCCO)NCCO [Adelmidrol]  0.00326 °C
25. Cc1ncc(CCCN(C)C)cc1Nc1ncc2c(n1)-c1ccc(C(F)(F)F)cc1NC(=S)C2  -0.00254 °C
26. CNCC(=O)OCc1cccnc1N(C)C(=O)OC(C)[n+]1cnn(C[C@](O)(c2cc(F)ccc2F)[C@@H](C)c2nc(-c3ccc(C#N)cc3)cs2)c1 (some centres undefined) [Isavuconazonium sulfate]  -0.0209 °C
27. C1=Cc2ccccc2C(=C2CCN(CCCCc3nn[nH]n3)CC2)c2ccccc21  -0.0351 °C
28. Nc1nc(CC(=O)Nc2ccc(CCNC[C@H](O)c3ccccc3)cc2)cs1 [Mirabegron]  -0.0684 °C
29. Cc1cccc(C)c1OCC(C)N (centres undefined) [Mexiletine HCl]  -0.0958 °C
30. O=C1C[C@@H](c2ccc(O)cc2)Oc2cc(O[C@@H]3O[C@H](CO)[C@@H](O)[C@H](O)[C@H]3O)ccc21 [Neoliquiritin]  -0.113 °C
31. NCCNc1ncc(C(N)=O)c(Nc2cccc(C(F)(F)F)c2)n1 [Syk Inhibitor II (hydrochloride)]  -0.124 °C
32. CN(C)Cc1c[nH]c2ccccc12 [Gramine]  -0.139 °C
33. Cc1c(N(C)C)c(=O)n(-c2ccccc2)n1C [Amidopyrine]  -0.15 °C
34. COc1ccc(-n2nc(C(F)(F)F)cc2-c2ccc(Cl)cc2)cc1  -0.16 °C
35. CCN(CC)CCNC(=O)c1c(C)[nH]c(/C=C2\C(=O)Nc3ccc(F)cc32)c1C [Sunitinib]  -0.167 °C
36. C=CCc1cccc(/C=N/NC(=O)CN2CCN(Cc3ccccc3)CC2)c1O  -0.171 °C
37. CC(=O)[C@H]1CC[C@H]2[C@@H]3C=CC4=CC(=O)CC[C@@]4(C)[C@@H]3CC[C@]12C [Dydrogesterone]  -0.201 °C
38. COc1ccc(CCC(=O)O)cc1OC [3,4-Dimethoxyhydrocinnamic acid]  -0.252 °C
39. C=C1C(=O)[C@]23[C@H](O)[C@H]1CC[C@H]2[C@@]12CO[C@]3(O)[C@@H](O)[C@@H]1C(C)(C)CC[C@@H]2O [Oridonin]  -0.585 °C
